Source: PubChem BioAssay AID652272 (Drosophila RNAi Screening Center, 2013)
Assay: 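Genes whose knock-down decreases or increases Hedgehog reporter output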 (primary screen). Cells: Drosophila clone 8 (Cl8) cells. Reagents: long dsRNA against Drosophila genes. Measurement: 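Plate reader light from a firefly reporter under a ptc promoter fragment that responds to Hedgehog, with Renilla light as transfection reference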. Reading the numbers: firefly Hh reporter signal: higher = more ptc reporter light; Renilla reference signal: higher = more Renilla control light. Rule for the call: 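Called a hit if the two-replicate mean z-score lies below -2 or above +3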. Calls: active = hit: reporter lowered or raised; inactive = not a hit.
The screen tested about 21,000 reagents; shown is a random part of those that have a named target and a result. Over the whole deposit, 503 (2.4%) got an active call. 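Raw plate light values, not normalised; calls rest on replicate z-scores that were not deposited; hits include reporter decreases as well as increases.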 Reagents against one gene are numbered here. Names joined by + are all predicted targets of the reagent. Not given: the amount of reagent, the time to read-out.

gene	reagent no.	firefly Hh reporter signal, replicate 1	firefly Hh reporter signal, replicate 2	Renilla reference signal, replicate 1	Renilla reference signal, replicate 2	outcome
asRNA:CR43433 + Rbp6	1	2.86e5		6249		inactive
CatB	1	92742	1.04e5	3789	3819	inactive
CG14314	1	6.52e5	78055	31908	1874	inactive
sky	1	92058	97040	4072	3780	inactive
sky	2	67323	52617	3082	2504	inactive
sky	3	1.06e5	42195	2859	4243	inactive
CG1663	1	1.74e5	65483	3528	4432	inactive
CG31431	1	7.47e5	1.68e5	38176	2582	inactive
nau	1	4.37e5	1.01e5	22896	3156	inactive
Rcd2	1	1.25e5	87861	4070	2470	inactive
CG3457	1	98163	94151	2016	3060	inactive
GCS2beta	1	5.09e5	85610	3501	3501	inactive
7B2	1	56403	78027	2164	2503	inactive
Cp15	1	56603	55264	6745	4144	inactive
CG3662	1	90472	61290	3655	2528	inactive
Cwc25	1	1.21e5	76545	3227	2675	inactive
CG7824	1	83136	1.31e5	2313	6113	inactive
CG4891	1	54210	44669	2646	2336	inactive
cert	1	75563	53405	3706	2304	inactive
ZnT63C	1	1.18e5	2.34e5	3869	9318	inactive
ZnT63C	2	1.04e5	2.25e5	3058	9021	inactive
ZnT63C	3	1.44e5	1.06e5	6296	4473	inactive
CAH8	1	9.49e5	2.11e5	44060	4888	inactive

Limited to “firefly Hh reporter signal, replicate 1”, for 3 of the entries above:
Cp15: 56603
CG3662: 90472
Cwc25: 1.21e5
